Data: patent US8445431B2, “Ligands having metal binding ability and targeting properties” (The Ohio State University, priority 2004, dated 2013)
At least one peptide structure holds a part that was inferred or is arguable (an end, a ring closure or a residue). Some results were stated once for a whole list of compounds, not compound by compound. Residues, ends and D or L forms follow the SMILES beside them.

Chains of the proteins cited; added tags and fusions are not shown. Residues count along the entry.
UniProt P12821, 30-1256 limits assumed: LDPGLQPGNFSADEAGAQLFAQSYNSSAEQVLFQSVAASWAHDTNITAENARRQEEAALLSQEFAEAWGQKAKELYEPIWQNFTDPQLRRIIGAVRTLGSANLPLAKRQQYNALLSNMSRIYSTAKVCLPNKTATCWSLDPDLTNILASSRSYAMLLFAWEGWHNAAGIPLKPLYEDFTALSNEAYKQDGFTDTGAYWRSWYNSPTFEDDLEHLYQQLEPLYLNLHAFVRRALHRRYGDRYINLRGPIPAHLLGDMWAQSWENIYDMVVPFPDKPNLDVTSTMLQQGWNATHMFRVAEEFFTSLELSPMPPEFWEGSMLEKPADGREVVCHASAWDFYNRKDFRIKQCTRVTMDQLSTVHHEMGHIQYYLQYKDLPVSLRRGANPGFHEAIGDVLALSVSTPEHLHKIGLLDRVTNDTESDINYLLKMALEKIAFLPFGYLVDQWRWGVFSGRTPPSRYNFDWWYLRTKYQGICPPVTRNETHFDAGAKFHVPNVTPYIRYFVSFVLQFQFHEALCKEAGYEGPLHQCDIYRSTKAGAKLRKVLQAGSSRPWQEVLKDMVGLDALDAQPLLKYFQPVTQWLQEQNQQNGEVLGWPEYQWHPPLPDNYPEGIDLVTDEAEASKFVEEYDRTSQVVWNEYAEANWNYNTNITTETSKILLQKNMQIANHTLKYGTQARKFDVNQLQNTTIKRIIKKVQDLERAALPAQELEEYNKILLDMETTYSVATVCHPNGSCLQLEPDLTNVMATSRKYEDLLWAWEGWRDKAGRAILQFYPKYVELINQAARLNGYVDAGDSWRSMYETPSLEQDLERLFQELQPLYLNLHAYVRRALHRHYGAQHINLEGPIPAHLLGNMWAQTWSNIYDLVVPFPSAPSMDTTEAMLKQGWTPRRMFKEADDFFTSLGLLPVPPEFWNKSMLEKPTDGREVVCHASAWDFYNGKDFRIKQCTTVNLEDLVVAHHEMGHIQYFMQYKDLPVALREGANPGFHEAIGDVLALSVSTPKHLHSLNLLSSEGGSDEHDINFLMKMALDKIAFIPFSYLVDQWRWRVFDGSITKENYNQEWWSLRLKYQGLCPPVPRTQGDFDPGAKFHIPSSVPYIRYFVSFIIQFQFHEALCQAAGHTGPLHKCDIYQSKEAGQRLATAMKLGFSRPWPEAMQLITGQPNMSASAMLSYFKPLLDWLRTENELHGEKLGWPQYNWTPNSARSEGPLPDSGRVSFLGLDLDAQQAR

Assays:
Type in all cases: biochemical
[1] = target: T1, recombinant human Angiotensin Converting Enzyme (rhACE) (Homo sapiens, UniProt P12821); assay: rhACE inhibition assay with fluorogenic peptide substrate (IC50, type of inhibition, KI); details: 45 min pre-incubation; for IC50: 10 μM substrate, 1 nM rhACE, pH 7.4, no ascorbate
T1 construct: corresponding to the ectodomain somatic ACE; purchased R&D systems Inc

[2] = target: T1, recombinant human Angiotensin Converting Enzyme (rhACE); assay: rhACE inactivation under oxidative conditions (ascorbate and dioxygen)
[3] = test system: pUC19 supercoiled plasmid DNA; assay: Plasmid DNA cleavage, agarose gel electrophoresis and quantitation; details: [DNA]=50 μM, complex 25 μM, ascorbate 250 μM, 10 mM Tris pH 7.4, 37° C.
Description: Plasmid pUC19 (2686 bp) was purchased from New England Biolabs Inc. The plasmid was transformed into DH5α competent cells, amplified, and pure plasmid isolated using QIAGEN protocols. Fresh plasmid DNA (over 90-95% supercoiled) was prepared before each experiment to avoid contamination by any other form of plasmid DNA. In general, DNA cleavage experiments were performed with 50 μM base pair concentration of pUC19, 25 μM Cu-peptide, and 250 μM ascorbate in 10 mM Tris buffer, pH 7.4, at 37° C. A control reaction was carried out using the same conditions as the cleavage reaction, but lacking the Cu-peptide complex. The reactions were quenched with a loading buffer containing 0.5 M EDTA. […]
Quantitation of closed circular, nicked and linear DNA was made by densitometric analysis of ethidium bromide containing agarose gels. Quantitation was performed by fluorescence imaging by use of a Gel-Doc 1000 (BioRad) and data analysis with Multianalysis software (version 1.1) provided by the manufacturer using the volume quantitation method. In all cases, background fluorescence was subtracted by reference to a lane containing no DNA. […] The fraction of each form of DNA was calculated by dividing the intensity of each band by the total intensities of all the bands in the lane. […]
Investigation of DNA linearization. […] In these studies, both n1 and n2 were calculated by use of equations (1) and (2).

Compound: NCCCC[C@H](NC(=O)[C@H](Cc1c[nH]cn1)NC(=O)CNC(=O)[C@@H](N)CCCCN)C(=O)O [[KGHK-Cu]^+] (H-KGHK-OH; C-terminus assumed)
- IC50 [1]: 11 µM
- Ki ([1]; hydrolytic conditions (no ascorbate), Dixon plot, read-out: KI (enzyme-inhibitor dissociation constant)): ~4 µM
- type of inhibition ([1]; hydrolytic conditions): competitive inhibitor
- inhibitory activity under oxidative relative to hydrolytic conditions ([2]; complex at KI, two fold excess of ascorbate and dioxygen): enhanced several fold
- kobs, catalytic rate constant for enzyme deactivation ([2]; oxidative conditions, sub-saturating concentration (4 μM) of complex, 10 μM ascorbate): ~0.0286 min⁻¹
- kobs, pseudo-first order disappearance of supercoiled DNA [3]: ~0.14 min⁻¹

Compound: YIHPF [[YIHPF-Cu]^−]
- IC50 [1]: > 100 µM

Compound: [GGH-Cu]^−: complex of peptide GGH with divalent copper
- IC50 [1]: > 100 µM
